Source: paper PMC3650065
Results are given in words; binding and its absence hold for the method and conditions named. Sequences can lack the tags named with a protein.

Biological target: T1, helicase domain of mda-5 as a GAL4 DNA-binding domain fusion (UniProt Q9BYX4)
T1 sequence: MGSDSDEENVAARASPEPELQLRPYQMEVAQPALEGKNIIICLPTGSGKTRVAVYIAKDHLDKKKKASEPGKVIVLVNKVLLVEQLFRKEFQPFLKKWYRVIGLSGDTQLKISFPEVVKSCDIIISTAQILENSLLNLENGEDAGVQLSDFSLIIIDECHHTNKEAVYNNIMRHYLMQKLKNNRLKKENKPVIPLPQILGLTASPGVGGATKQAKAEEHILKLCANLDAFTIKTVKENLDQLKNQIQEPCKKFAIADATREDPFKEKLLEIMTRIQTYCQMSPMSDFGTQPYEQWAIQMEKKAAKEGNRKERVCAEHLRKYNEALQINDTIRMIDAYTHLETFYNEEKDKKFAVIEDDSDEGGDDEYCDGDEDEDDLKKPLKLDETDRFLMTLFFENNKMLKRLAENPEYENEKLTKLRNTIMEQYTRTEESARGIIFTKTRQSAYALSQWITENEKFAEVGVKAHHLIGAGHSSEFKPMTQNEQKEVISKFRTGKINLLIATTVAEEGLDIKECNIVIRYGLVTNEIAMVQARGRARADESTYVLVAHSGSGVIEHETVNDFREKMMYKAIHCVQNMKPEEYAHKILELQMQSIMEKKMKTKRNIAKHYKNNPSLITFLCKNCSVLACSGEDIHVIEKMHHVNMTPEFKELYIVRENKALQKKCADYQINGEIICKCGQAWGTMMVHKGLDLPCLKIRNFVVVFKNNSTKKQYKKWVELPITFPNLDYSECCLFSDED
Assay: two-hybrid; S. cerevisiae PJ69-4α; GAL4 DBD and GAL4 AD fusions; growth on SD-L-W-H + 2 mM 3-AT, up to 6 days at 30°C

Binder | binding
LGP2(K634E) as a GAL4 activation domain fusion (protein, UniProt Q96C10 1-678) MELRSYQWEVIMPALEGKNIIIWLPTGAGKTRAAAYVAKRHLETVDGAKVVVLVNRVHLVTQHGEEFRRMLDGRWTVTTLSGDMGPRAGFGHLARCHDLLICTAELLQMALTSPEEEEHVELTVFSLIVVDECHHTHKDTVYNVIMSQYLELKLQRAQPLPQVLGLTASPGTGGASKLDGAINHVLQLCANLDTWCIMSPQNCCPQLQEHSQQPCKQYNLCHRRSQDPFGDLLKKLMDQIHDHLEMPELSRKFGTQMYEQQVVKLSEAAALAGLQEQRVYALHLRRYNDALLIHDTVRAVDALAALQDFYHREHVTKTQILCAERRLLALFDDRKNELAHLATHGPENPKLEMLEKILQRQFSSSNSPRGIIFTRTRQSAHSLLLWLQQQQGLQTVDIRAQLLIGAGNSSQSTHMTQRDQQEVIQKFQDGTLNLLVATSVAEEGLDIPHCNVVVRYGLLTNEISMVQARGRARADQSVYAFVATEGSRELKRELINEALETLMEQAVAAVQKMDQAEYQAKIRDLQQAALTKRAAQAAQRENQRQQFPVEHVQLLCINCMVAVGHGSDLRKVEGTHHVNVNPNFSNYYNVSRDPVVINKVFKDWKPGGVISCRNCGEVWGLQMIYKSVKLPVLEVRSMLLETPQGRIQAKKWSRVPFSVPDFDFLQHCAENLSDLSLD | no binding
LGP2 with helicase motif IV replaced with the equivalent sequence from RIG-I, two-hybrid fusion (protein, UniProt Q96C10 1-368; O95786 630-640; Q96C10 381-678) MELRSYQWEVIMPALEGKNIIIWLPTGAGKTRAAAYVAKRHLETVDGAKVVVLVNRVHLVTQHGEEFRRMLDGRWTVTTLSGDMGPRAGFGHLARCHDLLICTAELLQMALTSPEEEEHVELTVFSLIVVDECHHTHKDTVYNVIMSQYLELKLQRAQPLPQVLGLTASPGTGGASKLDGAINHVLQLCANLDTWCIMSPQNCCPQLQEHSQQPCKQYNLCHRRSQDPFGDLLKKLMDQIHDHLEMPELSRKFGTQMYEQQVVKLSEAAALAGLQEQRVYALHLRRYNDALLIHDTVRAVDALAALQDFYHREHVTKTQILCAERRLLALFDDRKNELAHLATHGPENPKLEMLEKILQRQFSSSNSPTILFVKTRALVHSLLLWLQQQQGLQTVDIRAQLLIGAGNSSQSTHMTQRDQQEVIQKFQDGTLNLLVATSVAEEGLDIPHCNVVVRYGLLTNEISMVQARGRARADQSVYAFVATEGSRELKRELINEALETLMEQAVAAVQKMDQAEYQAKIRDLQQAALTKRAAQAAQRENQRQQFPVEHVQLLCINCMVAVGHGSDLRKVEGTHHVNVNPNFSNYYNVSRDPVVINKVFKDWKPGGVISCRNCGEVWGLQMIYKSVKLPVLKVRSMLLETPQGRIQAKKWSRVPFSVPDFDFLQHCAENLSDLSLD | no binding
